Results on 13 substances are retold here after US7405201B2 (Bayer Healthcare AG, priority 2001, dated 2008).

The first data set in a line: general procedure: solution-phase peptide synthesis; TPTU/HOBT/ethyldiisopropylamine; HATU/ethyldiisopropylamine; EDC/pentafluorophen. The conditions noted are these: coupling step.
“3-Cyclohexyl-2-propenoic acid [(S)-2-(3,5-difluorophenyl)-1-((3S,9S,13S,15R,19S,22S)-15,19-Dimethyl-2,8,12,18,21-pentaoxo-11-oxa-1,7,17,20-tetraaza-tetracyclo [20.4.0.0^3,7.0^13,17] hexacos-9-ylcarbamoyl)-ethyl]-amide”: the step yield is 44% of th.
Same read-out and setting: the figure for “tert-Butyl (S)-2-{1-[(S)-2-((S)-2-{(2S,4R)-2-[(S)-2-benzyloxycarbonylamino-2-(2-oxo-2-phenylethoxycarbonyl)-ethoxycarbonyl]-4-methyl-pyrrolidin-1-yl}-1-methyl-2-oxo-ethylcarbamoyl)-piperidin-1-yl]-methanoyl}-pyrrolidine-1-carboxylate” is 71% of th.
Still for that read-out and setting: with “tert-Butyl (S)-2-{[(S)-1-((S)-2-{(S)-2-[(S)-2-benzyloxycarbonylamino-2-(2-oxo-2-phenyl-ethoxycarbonyl)-ethoxycarbonyl]-pyrrolidin-1-yl}-1-methyl-2-oxo-ethylcarbamoyl)-ethyl]-methyl-carbamoyl}-pyrrolidine-1-carboxylate” the figure was 83% of th; with “tert-Butyl [(S)-2-(3,5-difluorophenyl)-1-((3S,7S,13S,16S,19S)-13,16,17-trimethyl-2,6,12,15,18-pentaoxo-5-oxa-1,11,14,17-tetraaza-tricyclo[17.3.0.0^7,11]docos-3-ylcarbamoyl)-ethyl]-carbamate”, 57% of th.
Same read-out and setting: with “tert-Butyl [(S)-2-(3,5-difluorophenyl)-1-((3S,9S,13S,15R,19S,22S)-15,19-dimethyl-2,8,12,18,21-pentaoxo-11-oxa-1,7,17,20-tetraaza-tetracyclo-[20.4.0.0^3,7.0^13,17]hexacos-9-ylcarbamoyl)-ethyl]-carbamate” the figure was 97% of th.

Staying with this data set, now noted: cyclisation step.
Take “Benzyl ((3S,9S,13S,15R,19S,22S)-15,19-dimethyl-2,8,12,18,21-pentaoxo-11-oxa-1,7,17,20-tetraaza-tetracyclo[20.4.0.0^3,7.0^13,17]hexacos-9-yl)-carbamate”: the cyclisation yield was 60% of th.

Staying with this data set, now noted: late stage modification step.
“3-Cylcohexylpropanoic acid [(S)-2-(3,5-difluorophenyl)-1-((3S,9S,13S,15R,19S,22S)-15,19-Dimethyl-2,8,12,18,21-pentaoxo-11-oxa-1,7,17,20-tetraaza-tetracyclo[20.4.0.0^3,7.0^13,17] hexacos-9-ylcarbamoyl)-ethyl]-amide”: the step yield is 49% of th.
On the same count and under the same terms, with “(E)-Hept-2-enoic acid [(S)-2-(3,5-difluorophenyl)-1-((3S,7S,13S,16S,19S)-13,16,17-trimethyl-2,6,12,15,18-pentaoxo-5-oxa-1,11,14,17-tetraazatricyclo[17.3.0.0^7,11]docos-3-ylcarbamoyl)-ethyl]-amide” the figure was 56% of th; with “(E)-Hept-2-enoic acid [(S)-2-(3,5-difluorophenyl)-1-((3S,9S,13S,15R,19S,22S)-15,19-Dimethyl-2,8,12,18,21-pentaoxo-11-oxa-1,7,17,20-tetraaza-tetracyclo[20.4.0.0^3,7.0^13,17]hexacos-9-ylcarbamoyl)-ethyl]-amide”, 62% of th; with “tert-Butyl (S)-2-[1-((S)-2-{(S)-2-[(2S,4R)-2-((S)-2-benzyloxycarbonylamino-2-carboxy-ethoxycarbonyl)-4-methyl-pyrrolidin-1-yl]-1-methyl-2-oxo-ethylcarbamoyl}-piperidin-1-yl)-methanoyl]-pyrrolidine-1-carboxylate”, 91% of th.
On the same count and under the same terms, with “tert-Butyl (S)-2-[((S)-1-{(S)-2-[(S)-2-((S)-2-benzyloxycarbonylamino-2-carboxyethoxycarbonyl)-pyrrolidin-1-yl]-1-methyl-2-oxo-ethylcarbamoyl}-ethyl)-methylcarbamoyl]-pyrrolidine-1-carboxylate” the figure was 94% of theory.

The data set is the same for the next values; noted with them: late stage modification step, chloride.
Regarding “(3S,7S,13S,16S,19S)-13,16,17-Trimethyl-2,6,12,15,18-pentaoxo-5-oxa-1,11,14,17-tetraaza-tricyclo[17.3.0.0^7,11]docos-3-yl-ammonium chloride”, the step yield was 94% of th.
On the same count and under the same terms, the figure for “(3S,9S,13S,15R,19S,22S)-15,19-Dimethyl-2,8,12,18,21-pentaoxo-11-oxa-1,7,17,20-tetraaza-tetracyclo[20.4.0.0^3,7.0^13,17]hexacos-9-yl-ammonium chloride” is 98% of th.
